# Assays:
# L02 cells = assay: MTT cell viability assay, L02; format: cell-based; conditions: Homo sapiens, 48 h of treatment, 3 % serum
# MCF-10A cells = assay: MTT cell viability assay, MCF-10A; format: cell-based; conditions: Homo sapiens, 48 h of treatment, 3 % serum
smiles,measurement,setting,value
"O=C(CCCCCCC(=O)Nc1ccccc1)NO [SAHA, Suberoylanilide hydroxamic acid]",IC50,L02 cells,85 ± 2 µM
same,IC50,MCF-10A cells,59 ± 10 µM

# Reference: article PMC4955146, “Virtual screening and experimental validation of novel histone deacetylase inhibitors” (BMC Pharmacology & Toxicology, 2016)
